For at least one entry, the source does not settle the construct or the ends of the probe. Negatives hold for the conditions tested.

The test system of the series is human lactate dehydrogenase (hLDH) (Homo sapiens). Description: EMSA. The settings on record: 1000 nM hLDH; EMSA: 25 nM strand, 0-2500 nM PfLDH (tetramer concentration in legends; text says Kd per subunit), 25 mM Tris-HCl pH 7.5, 100 mM NaCl, 20 mM imidazole, 25 C 1 h; recombinant protein; single-stranded DNA. In general terms: In EMSA bound probe runs differently from free probe, usually more slowly.

On to “TGAGGCAGGCGTCAGACTGTAGCGTAGCAAGGTTTTTTTTTTTTTTTTTTTTCTGGGCGGTAGAACCATAGTGACCCAGCCGTCTAC [aptamer staple 79]”, for which the binding result is “no binding”.
The value for “CTAAAGCAAGATAGAACCCTTCTGAATCGTCTTTTTTTTTTTTTTTTTTTTTCTGGGCGGTAGAACCATAGTGACCCAGCCGTCTAC [aptamer staple 97]” was “no binding”; that for “TCATTACCCGACAATAAACAACATATTTAGGCTTTTTTTTTTTTTTTTTTTTCTGGGCGGTAGAACCATAGTGACCCAGCCGTCTAC [aptamer staple 87]” was “no binding”.
The value for “TATGTAAACCTTTTTTAATGGAAAAATTACCTTTTTTTTTTTTTTTTTTTTTCTGGGCGGTAGAACCATAGTGACCCAGCCGTCTAC [aptamer staple 91]” was “no binding”; that for “CTTTACAGTTAGCGAACCTCCCGACGTAGGAATTTTTTTTTTTTTTTTTTTTCTGGGCGGTAGAACCATAGTGACCCAGCCGTCTAC [aptamer staple 85]” was “no binding”; that for “CGGAATTATTGAAAGGAATTGAGGTGAAAAATTTTTTTTTTTTTTTTTTTTTCTGGGCGGTAGAACCATAGTGACCCAGCCGTCTAC [aptamer staple 95]” was “no binding”.
The value for “AGAGGCATAATTTCATCTTCTGACTATAACTATTTTTTTTTTTTTTTTTTTTCTGGGCGGTAGAACCATAGTGACCCAGCCGTCTAC [aptamer staple 89]” was “no binding”; that for “CCGGAAACACACCACGGAATAAGTAAGACTCCTTTTTTTTTTTTTTTTTTTTCTGGGCGGTAGAACCATAGTGACCCAGCCGTCTAC [aptamer staple 81]” was “no binding”; that for “TGCTCAGTCAGTCTCTGAATTTACCAGGAGGTTTTTTTTTTTTTTTTTTTTTCTGGGCGGTAGAACCATAGTGACCCAGCCGTCTAC [aptamer staple 77]” was “no binding”.
As for “TATCACCGTACTCAGGAGGTTTAGCGGGGTTTTTTTTTTTTTTTTTTTTTTTCTGGGCGGTAGAACCATAGTGACCCAGCCGTCTAC [aptamer staple 76]”, the binding result is “no binding”.
In the case of “GAGCAAAAACTTCTGAATAATGGAAGAAGGAGTTTTTTTTTTTTTTTTTTTTCTGGGCGGTAGAACCATAGTGACCCAGCCGTCTAC [aptamer staple 93]”, the binding result is given as “no binding”.
For “TTATTACGGTCAGAGGGTAATTGAATAGCAGCTTTTTTTTTTTTTTTTTTTTCTGGGCGGTAGAACCATAGTGACCCAGCCGTCTAC [aptamer staple 83]”, the binding result was “no binding”.

Source of the values: PMC4759581.
